The record followed here is publication PMC11649789.

By UniProt entry, the sequences of proteins in these tests, tags left out.
UniProt P17931: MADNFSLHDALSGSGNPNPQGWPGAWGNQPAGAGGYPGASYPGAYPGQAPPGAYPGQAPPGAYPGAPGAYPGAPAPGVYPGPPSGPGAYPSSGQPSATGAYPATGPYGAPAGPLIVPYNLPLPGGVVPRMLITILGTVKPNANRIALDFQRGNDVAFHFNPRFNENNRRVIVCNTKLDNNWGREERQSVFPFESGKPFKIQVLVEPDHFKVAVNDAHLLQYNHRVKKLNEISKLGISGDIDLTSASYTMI
UniProt P05198: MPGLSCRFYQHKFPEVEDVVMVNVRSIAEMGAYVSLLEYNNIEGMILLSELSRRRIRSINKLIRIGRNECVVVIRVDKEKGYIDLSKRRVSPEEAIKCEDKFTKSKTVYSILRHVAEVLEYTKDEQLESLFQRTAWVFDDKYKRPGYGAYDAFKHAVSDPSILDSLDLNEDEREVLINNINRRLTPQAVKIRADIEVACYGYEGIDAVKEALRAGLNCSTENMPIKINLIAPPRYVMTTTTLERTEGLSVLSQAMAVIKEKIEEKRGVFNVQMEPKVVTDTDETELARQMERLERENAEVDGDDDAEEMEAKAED
UniProt Q8WUM4: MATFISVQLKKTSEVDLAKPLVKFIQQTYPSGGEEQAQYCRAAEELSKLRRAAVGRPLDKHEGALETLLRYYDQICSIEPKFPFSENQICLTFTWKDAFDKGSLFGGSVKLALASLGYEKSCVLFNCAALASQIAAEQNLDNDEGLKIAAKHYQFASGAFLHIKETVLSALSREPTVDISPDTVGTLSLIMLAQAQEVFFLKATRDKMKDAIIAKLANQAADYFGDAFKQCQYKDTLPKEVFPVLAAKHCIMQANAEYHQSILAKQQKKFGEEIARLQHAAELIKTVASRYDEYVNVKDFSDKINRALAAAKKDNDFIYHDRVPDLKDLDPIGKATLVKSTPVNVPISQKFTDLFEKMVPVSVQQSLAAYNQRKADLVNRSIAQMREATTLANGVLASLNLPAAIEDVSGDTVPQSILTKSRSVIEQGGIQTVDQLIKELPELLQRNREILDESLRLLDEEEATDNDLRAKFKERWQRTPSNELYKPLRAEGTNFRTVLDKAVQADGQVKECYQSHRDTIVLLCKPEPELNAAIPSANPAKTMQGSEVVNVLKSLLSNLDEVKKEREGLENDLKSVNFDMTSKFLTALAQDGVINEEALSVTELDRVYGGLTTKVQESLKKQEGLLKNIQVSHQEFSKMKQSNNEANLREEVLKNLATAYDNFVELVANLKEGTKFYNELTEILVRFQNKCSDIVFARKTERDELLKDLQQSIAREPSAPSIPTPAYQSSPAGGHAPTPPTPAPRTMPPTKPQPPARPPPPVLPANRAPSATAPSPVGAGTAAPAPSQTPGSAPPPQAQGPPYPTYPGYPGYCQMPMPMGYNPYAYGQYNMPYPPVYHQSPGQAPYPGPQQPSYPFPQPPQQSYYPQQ
UniProt P19525: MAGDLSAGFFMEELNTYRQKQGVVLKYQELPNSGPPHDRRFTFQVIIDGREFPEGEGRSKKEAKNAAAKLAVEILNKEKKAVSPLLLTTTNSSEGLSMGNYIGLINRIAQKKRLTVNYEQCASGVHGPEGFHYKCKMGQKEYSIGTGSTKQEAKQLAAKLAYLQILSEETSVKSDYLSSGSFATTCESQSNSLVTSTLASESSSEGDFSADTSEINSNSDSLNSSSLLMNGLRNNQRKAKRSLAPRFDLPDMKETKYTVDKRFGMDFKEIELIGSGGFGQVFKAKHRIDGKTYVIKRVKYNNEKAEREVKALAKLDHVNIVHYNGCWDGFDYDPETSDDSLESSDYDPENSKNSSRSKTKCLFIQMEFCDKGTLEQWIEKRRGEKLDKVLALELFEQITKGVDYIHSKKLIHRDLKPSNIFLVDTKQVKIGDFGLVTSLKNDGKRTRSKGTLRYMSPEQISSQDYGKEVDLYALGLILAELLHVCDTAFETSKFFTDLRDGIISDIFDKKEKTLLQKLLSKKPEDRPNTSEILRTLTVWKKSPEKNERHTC

One experiment concerns the target FLAG-Gal3 (UniProt P17931). Briefly: co-IP; HEK293T expressing FLAG-Gal3; untreated or 1 mM LLOMe 30 min; NP-40 lysate, anti-FLAG antibody, Dynabeads; immunoblot (Fig. 6C).
A further experiment deals with FLAG-eIF2α (UniProt P05198). In words: co-IP; HEK293T expressing FLAG or FLAG-eIF2α, untreated or 1 mM LLOMe 30 min; NP-40 lysate, anti-FLAG antibody, Dynabeads; immunoblot (Fig. 3D).

These are yes or no findings as the source states them, for the method shown. Binding seen in cells or lysates may run through a third protein. Some entries that bind do so weakly or less than the wild type.

Consider “ALIX (ALG-2-Interacting Protein X), endogenous (from UniProt Q8WUM4 1-868)”, for which the binding entry in the experiment with FLAG-Gal3 is “binds”.

Turning to “PKR (Protein Kinase R), endogenous (from UniProt P19525 1-551)”, the binding entry with FLAG-Gal3 and with FLAG-eIF2α was “binds” in each case.
